Data as given in PubChem BioAssay AID2685 (National Center for Advancing Translational Sciences (NCATS), 2010).
This is one part of the list. These are further read-outs of the screen, such as a control signal, another cell line or another target. No call is given for them. The list favours compounds with an active or inconclusive main result. Words in brackets tell the shape of the fitted curve; partial curves, single points and poor fits give uncertain potencies.

Assay: qHTS Assay for Lipid Storage Modulators in Drosophila S3 Cells;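 as to cell number change: cells counted by Cell Tracker Red CMTPX staining in the red channel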
Conditions: BODIPY lipid droplet fluorescence, 18-24 h; for cell number change: measured here: cell count max response, cells fed with added oleic acid
Summary of the method: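 Laser-scanning cytometry quantifies lipid droplet accumulation (500–530 nm total intensity; droplet/cell object ratio) in oleic acid-fed (400 uM added) Drosophila S3 cells treated with a concentration series. 20 uM Triacsin C defined 100% inhibition.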

[1] = measured here: cell number channel AC50, cells fed with added oleic acid
[2] = measured here: lipid fluorescence (Fed channel) AC50, cells fed with added oleic acid

SMILES	cell number change	AC50 [1]	AC50 [2]
O=C(CCNS(=O)(=O)c1ccccc1)OCC(=O)c1ccc(Cl)cc1	-7.6%	0.291 µM [falling, full curve, poor fit]	
COc1ccc(C(=O)NNC(=O)CCC(=O)Nc2ccc(C)cc2C)cc1	17.5%		
O=C(Nc1cccc(-c2nc3cc(Cl)ccc3o2)c1)C1CCCO1 (stereo unspecified)	3.9%		
CCN1CCN(CC(=O)NC2CCCC2)C(=O)C1=O			32.6 µM [falling, single point]
COC(=O)c1c(C)[nH]c(C(=O)OCc2ccc(F)cc2)c1C	-38.9%	5.17 µM [falling, partial curve, poor fit]	0.164 µM [falling, full curve, poor fit]
CC1=C(C(=O)OCc2cc(C)on2)N2C(=O)[C@@H](NC(=O)OCc3cc(C)on3)[C@H]2SC1	-2.17%		2.91 µM [falling, single point]
CC(C)CNC(=O)COC(=O)c1ccc(Cl)c(S(N)(=O)=O)c1	-11.2%		
Cc1cccc(N(C(=O)c2nsc(Cl)c2Cl)C(C(=O)NC2CCCC2)c2ccc(O)cc2)c1C (stereo unspecified)	7.96%		25.9 µM [rising, single point]
CC1Cc2ccccc2N1C(=O)c1cnsn1 (stereo unspecified)	-9.17%	0.651 µM [falling, single point]	29.1 µM [rising, single point]
CC1CN(C(=O)N(C)C)CCN1C(=O)N(C)C (stereo unspecified)	0.74%		29.1 µM [falling, single point]
O=C(CN1C(=O)C2CC=CCC2C1=O)Nc1nnc(SCc2ccc(Cl)cc2)s1 (stereo unspecified)	26.2%		
Fc1ccccc1C(c1nnnn1Cc1ccc2c(c1)OCO2)N1CCN(Cc2ccco2)CC1 (stereo unspecified)	-22.9%		16.4 µM [rising, single point]
O=C(NCCc1ccc(F)cc1)N1CCOCC1	7.94%		
CCOC(=O)N1CCC2(CC1)C(C#N)=C(N)Oc1n[nH]c(C)c12		6.51 µM [falling, single point]	6.51 µM [falling, single point]
COCCn1c(=NC(=O)c2cc(Cl)sc2Cl)sc2cc(S(N)(=O)=O)ccc21	40.8%	9.2 µM [rising, single point]	13 µM [falling, single point]
COC(=O)c1cc(S(=O)(=O)NCc2ccc3c(c2)OCO3)c[nH]1	-8.68%		
CCOC(=O)N1CCC(NC(=O)c2cc(C(=O)NCc3ccc(F)cc3)ccc2CO)CC1	-47.7%	20.6 µM [falling, single point]	
O=C(Nc1ccccc1)Nc1cccc(C(F)(F)F)c1	-46%	0.00461 µM [falling, full curve, poor fit]	0.82 µM [falling, full curve]
CCS(=O)(=O)c1ccc2oc(SCC(=O)NC3CCCC(C)C3C)nc2c1 (stereo unspecified)	-61.9%	23.1 µM [falling, single point]	
COc1ccc(N=c2scc(-c3ccc(S(=O)(=O)N4CCOCC4)cc3)n2CCCO)cc1	-57.9%	8.2 µM [falling, partial curve]	5.17 µM [falling, partial curve]
O=C(O)CCCNc1c(C(=O)Nc2ccc(Cl)cc2)cc([N+](=O)[O-])cc1[N+](=O)[O-]	9.97%		

Three compounds from above, ordered by molecular weight, descending:
SMILES	cell number change	AC50 [1]	AC50 [2]
O=C(O)CCCNc1c(C(=O)Nc2ccc(Cl)cc2)cc([N+](=O)[O-])cc1[N+](=O)[O-]	9.97%		
COc1ccc(C(=O)NNC(=O)CCC(=O)Nc2ccc(C)cc2C)cc1	17.5%		
CC(C)CNC(=O)COC(=O)c1ccc(Cl)c(S(N)(=O)=O)c1	-11.2%		

The list goes on:

SMILES	cell number change	AC50 [1]	AC50 [2]
COc1ccc(CCNC(=O)COC(=O)C2CC2C)cc1OC (stereo unspecified)	-33.5%	18.4 µM [falling, partial curve]	
Nc1cnn(Cc2ccc(F)cc2)c1	-14.5%	2.59 µM [rising, partial curve]	
O=C(NC(=S)NCC1CCCO1)c1cccc([N+](=O)[O-])c1 (stereo unspecified)	-56.7%	18.4 µM [falling, single point]	29.1 µM [falling, single point]
C/C(N)=C(/C#N)C(=O)CSc1nnc(Nc2cccc(C)c2C)s1	-25%		0.146 µM [falling, full curve, poor fit]
O=C(N/N=C/C=C/c1ccc2c(c1)OCO2)c1ccc([N+](=O)[O-])cc1	-2.85%	0.092 µM [rising, full curve, poor fit]	0.13 µM [rising, full curve, poor fit]
C#CC[N+]1(CC#Cc2ccccc2)CCOCC1	-3.04%	0.326 µM [rising, full curve, poor fit]	
Cc1ccc(S(=O)(=O)N2CCN(C(=O)Cn3c(=O)cnc4ccccc43)CC2)cc1	-9.9%		2.31 µM [falling, single point]
Cc1nc2c3ccccc3nc(SCC(=O)c3ccc(Cl)cc3)n2n1	31.4%	1.16 µM [rising, full curve]	3.26 µM [rising, partial curve]
O=C(CCNC(=O)c1ccc(Cl)cc1)NCC(c1ccco1)N1CCCCC1 (stereo unspecified)	9.45%		0.82 µM [falling, full curve, poor fit]
O=C(CN1CCN(C(=O)C2CCC2)CC1)Nc1ccc(F)cc1	23.1%		0.164 µM [rising, full curve]
CC(=O)C1=C(O)C(=O)N(CCN2CCOCC2)C1c1ccccc1 (stereo unspecified)			23.1 µM [falling, partial curve]
COc1cccc(OC2OC3COC(C)(C)OC3C(O)C2NC(C)=O)c1 (stereo unspecified)	11.9%		
Fc1ccccc1Cc1noc(CN(Cc2ccccn2)CC2CCCO2)n1 (stereo unspecified)	-2.34%		
O=C(NC1CCCC1)C(c1ccc(N2CCOCC2)cc1)N(Cc1ccccc1)C(=O)c1ccco1 (stereo unspecified)	-2.94%		0.00517 µM [falling, full curve, poor fit]
O=C(NNc1nc2ccccc2s1)Nc1ccccc1	36.8%		16.4 µM [rising, single point]
CCn1c(=O)cc(SCC(=O)NCC2CCCO2)c2ccccc21 (stereo unspecified)			2.91 µM [rising, single point]
Nc1nc(SCC(=O)Nc2ccc(Cl)c([N+](=O)[O-])c2)n[nH]1	7.64%		11.6 µM [falling, partial curve]
CC1Oc2ccccc2N(CC(=O)Nc2ccc(F)cc2)C1=O (stereo unspecified)	5.51%		25.9 µM [rising, single point]
COc1ccc(/C=C(\C#N)C(=O)OCC(=O)Nc2c(C)cccc2C(C)C)cc1		0.146 µM [rising, full curve, poor fit]	
COC(=O)Cn1c(=NC(=O)c2nc3ccccc3s2)sc2cc(S(C)(=O)=O)ccc21	22.9%		0.0058 µM [rising, full curve, poor fit]
Nc1n[nH]c2c1C1(CCCC1)Cc1ccccc1-2	-31.2%	20.6 µM [falling, partial curve, poor fit]	

SMILES	cell number change	AC50 [1]	AC50 [2]
CC1(C)Cc2ccccc2C(=NC(Cc2ccccc2)C(=O)O)N1 (stereo unspecified)	15.5%		
COC(=O)[C@H](Cc1ccccc1)NC(=O)Cn1ccc(NC(=O)OCc2ccccc2)nc1=O	-0.129%	0.058 µM [rising, partial curve, poor fit]	0.103 µM [falling, full curve, poor fit]
COC(=O)c1ccc(OCCOc2ccccc2C)cc1	0.529%		
CCc1ccc(NC(=O)CSc2nc(=O)n(CCCN3CCOCC3)c3c2CCC3)cc1	-11.6%		
CCOc1ccc(N(CC(=O)NCc2cccnc2)S(=O)(=O)c2ccc(F)cc2)cc1	38%	46.1 µM [rising, single point]	29.1 µM [rising, single point]
N/C(=N\OC(=O)c1ccc(Br)o1)c1ccccn1	-40.9%		
Cn1c(=O)[nH]c(=O)c2c1nc(Br)n2CCCO	1.76%		5.17 µM [rising, partial curve]
Cc1ccc2[nH]c(CNC(=O)c3ccccc3F)cc2c1	-2.89%		11.6 µM [rising, partial curve]
CC(C)(c1ccccc1)c1ccc(OCC(O)CNC2CCN(Cc3ccccc3)CC2)cc1 (stereo unspecified)	-134%	29.1 µM [falling, single point]	
COc1ccc(/C=N/NC(=O)c2cccnc2)cc1	13.4%		0.146 µM [rising, full curve, poor fit]
Clc1ccc(OCc2nnc(-c3ccccc3Br)o2)c(Cl)c1	-8.14%	0.366 µM [rising, single point]	
CCOC(=O)c1sc(=NC(=O)CCSc2ccccc2)n(C)c1C			10.3 µM [rising, partial curve]
O=C(CN1CCOCC1)NCCC12CC3CC(CC(C3)C1)C2	-46.6%	3.26 µM [falling, full curve]	20.6 µM [falling, partial curve]
Cc1onc(-c2ccccc2)c1C(=O)n1nnc2ccccc21	-174%	29.1 µM [falling, single point]	29.1 µM [falling, single point]
CC(=O)CC(=O)Nc1ccc(Cl)cn1	-54.7%	29.1 µM [falling, single point]	20.6 µM [falling, single point]
Cc1cc(NC(=O)Cn2nc(C(F)(F)F)c3c2CCC3)n(-c2ccccc2)n1			29.1 µM [falling, single point]
COc1ccc(OC)c(NC(=O)CSc2nncc3ccccc23)c1	-23.8%		5.8 µM [rising, single point]
CC1(C)Cc2noc(N)c2C(C)(C)N1OC(=O)c1scc2c1OCCO2	-9.07%		0.164 µM [falling, full curve, poor fit]
O=C1NC(c2ccccc2)=NC1(NS(=O)(=O)c1ccc(Cl)cc1)C(F)(F)F (stereo unspecified)	9%		0.92 µM [falling, full curve, poor fit]
